Laboratory results as given in PMC6639331.
For at least one entry, the source does not settle the construct or the ends of the probe. The comparison behind a weaker result is the experiment's own reference, which may not be listed here.

System: CCR4-NOT FULL (CCR4a E240A:CAF1 D40A) (Homo sapiens)
Experiment: EMSA
Details: 1 uM protein, 100 nM RNA, EMSA: 20 mM Tris/HCl pH 7.5, 10 mM NaCl, 2 mM MgCl2, 0.1% BSA, 0.1% Orange G, 3% Ficoll 400, 10% native PAGE in TBE pH …, temperature not stated, recombinant protein, protein details: NOT1 N-His10 and C-StrepII x2, other tags removed, label: labeled

Sequence: AAAAAAAAAAAAAAAAAAAAAAAAAAAAAA [poly(A)30]
- binding result: binds more weakly
